Assay results taken from patent publication USRE48558.
Where a chain is given by its changes, count along the chain named. No constants are given. Whether binding was seen depends on the method and setting. Some entries that bind do so weakly or less than the wild type.

Chains of the proteins cited; added tags and fusions are not shown. Lines headed by an entry give the natural chain unless they say otherwise; changes in a name come on top.
UniProt P40259: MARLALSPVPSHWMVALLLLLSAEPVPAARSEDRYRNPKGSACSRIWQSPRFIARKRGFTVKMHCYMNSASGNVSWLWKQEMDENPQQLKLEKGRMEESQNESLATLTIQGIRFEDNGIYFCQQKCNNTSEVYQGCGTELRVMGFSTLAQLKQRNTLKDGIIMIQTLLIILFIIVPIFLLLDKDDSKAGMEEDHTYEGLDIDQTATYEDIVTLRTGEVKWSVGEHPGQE

B1: huMA79b graft variant SEQ ID NO: 37 (Fab, name in Kabat numbering, V domains shown)
VH: EVQLVESGGGLVQPGGSLRLSCAASGYTFSSYWIEWVRQAPGKGLEWVGEILPGGGDTNYNEIFKGRFTISADTSKNTAYLQMNSLRAEDTAVYYCTRRVPVYFDYWGQGTLVTVSS
VL: DIQMTQSPSSLSASVGDRVTITCKASQSVDYDGDSFLNWYQQKPGKAPKLLIYAARYLRRGVPSRFSGSGSGTDFTLTISSLQPEDFATYYCQQSNEDPLTFGQGTKVEIKR
B2: huMA79b graft variant SEQ ID NO: 38 (Fab, name in Kabat numbering, V domains shown)
VH: B1 VH
VL: B1 VL with Y57R, R60T
B3: huMA79b graft variant SEQ ID NO: 39 (Fab, name in Kabat numbering, V domains shown)
VH: B1 VH
VL: B1 VL with Y57R, R59G
B4: huMA79b graft variant SEQ ID NO: 40 (Fab, name in Kabat numbering, V domains shown)
VH: B1 VH
VL: B1 VL with Y57Q, L58R, R59K
B5: huMA79b graft variant SEQ ID NO: 41 (Fab, name in Kabat numbering, V domains shown)
VH: B1 VH
VL: B1 VL with Y57K, R59L
B6: huMA79b graft variant SEQ ID NO: 42 (Fab, name in Kabat numbering, V domains shown)
VH: B1 VH
VL: B1 VL with Y57K, R59K, R60N
B7: huMA79b graft variant SEQ ID NO: 43 (Fab, name in Kabat numbering, V domains shown)
VH: B1 VH
VL: B1 VL with Y57K, R59G, R60T
B8: huMA79b graft variant SEQ ID NO: 44 (Fab, name in Kabat numbering, V domains shown)
VH: B1 VH
VL: B1 VL with Y57K, R59G, R60G
B9: huMA79b graft variant SEQ ID NO: 45 (Fab, name in Kabat numbering, V domains shown)
VH: B1 VH
VL: B1 VL with Y57K, R59A
B10: huMA79b graft variant SEQ ID NO: 46 (Fab, name in Kabat numbering, V domains shown)
VH: B1 VH
VL: B1 VL with R56S, Y57N, R59E, R60S, E97A
B11: huMA79b graft variant SEQ ID NO: 47 (Fab, name in Kabat numbering, V domains shown)
VH: B1 VH
VL: B1 VL with R56S, Y57N, R59E, R60S, E97Q
B12: huMA79b graft variant SEQ ID NO: 87 (Fab, name in Kabat numbering, V domains shown)
VH: B1 VH with V102I, F104L
VL: B1 VL with R56S, Y57N, R59E, R60S
B13: huMA79b graft variant SEQ ID NO: 90 (Fab, name in Kabat numbering, V domains shown)
VH: B1 VH with F104L
VL: B1 VL with R56S, Y57N, R59E, R60S
B14: huMA79b graft variant SEQ ID NO: 91 (Fab, name in Kabat numbering, V domains shown)
VH: B1 VH with V102I
VL: B1 VL with R56S, Y57N, R59E, R60S

What follows are binders tested against extracellular domain of human CD79b (human) (UniProt P40259) (assay: phage selection, Fab on phage, plate-bound huCD79becd).

Binder | binding
B1 | binds
B2 | binds
B3 | binds
B4 | binds
B5 | binds
B6 | binds
B7 | binds
B8 | binds
B9 | binds
B10 | binds
B11 | binds
B12 | binds
B13 | binds
B14 | binds
